# Measured values published in PubChem BioAssay AID1259415 (National Center for Advancing Translational Sciences (NCATS), 2018).
# About 18,000 (4.4%) of roughly 410,000 compounds were called active. This list was built around the results that the source calls inconclusive (neither active nor inactive); the mix of calls is not that of the screen. No stated cut-off is given here; in the data, active means activity change below about -60%; inconclusive means no clear call, values can overlap the other calls; inactive means above about -39%.
# Test: qHTS Assay for inhibitors of the human cytomegalovirus (HCMV)
# Conditions: HFF cells, HCMV-luciferase reporter, 72 h; at 57.5 µM; stronger effect = lower value
# Summary of the method: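 Two compound doses tested in HFFs infected with HCMV-luciferase, MOI 1 PFU/cell, 72 h at 37C. Lysate luminescence read with OneGlo; data normalized against buffer-only and 10uM Salinomycin inhibitor controls.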
# On the % scale 0 is the no-effect control and ±100 the full control effect.
row,Compound,"activity change, negative = inhibition"
1,COc1ccc(C(=O)Nc2cc(C)nn2-c2cccc(F)c2)cc1OC,inactive: 23.6%
2,CC1CCN(S(=O)(=O)c2cccc(S(=O)(=O)N3CCCC3)c2)CC1,inconclusive: -41.8%
3,O=C(Nc1ccc2ccccc2c1)c1nn(C23CC4CC(CC(C4)C2)C3)cc1Br,inactive: -13.4%
4,CCN(CC)S(=O)(=O)c1cccc(NC(=O)CN(C)Cc2cccc(OC)c2)c1,inconclusive: -42.8%
5,CCCCN1C(=O)c2ccc(C(=O)Nc3ccccc3N3CCOCC3)cc2C1=O,inconclusive: -46.5%
6,CCC(CC)N1CCN(CC2CC=CCC2)CC1 (configuration not stated),inconclusive: -43.1%
7,O=C(Nc1cccc(C(F)(F)F)c1)C1Cc2c(-c3ccco3)ccnc2O1 (configuration not stated),inconclusive: -53.5%
8,CCOc1ccc(S(=O)(=O)NCC(=O)NC2CCCCC2)cc1,inactive: -21.5%
9,Nc1c(C(=O)Nc2ccccc2)sc2nc3c(c(-c4ccco4)c12)CCCC3,inconclusive: -48%
10,CCOc1ccc(C(=O)Nc2cccc(SC)c2)cc1,inconclusive: -47.8%
11,O=C(CNC(=O)c1ccccc1F)NCc1ccncc1,inactive: 18.6%
12,CCC1(C)Cc2nc3[nH]c(=S)n(-c4ccccc4C)c(=O)c3cc2CO1 (configuration not stated),inconclusive: -55%
13,Cc1c(/C=N/NC(=O)c2cccnc2)c2ccccc2n1Cc1ccccc1,active: -62.4%
14,Nc1nnnn1N=C1CCCCC1,inconclusive: -50.9%
15,C#Cc1ccc(NC(=O)C2(C)CCN2C(=O)Cc2ccc(-c3ccccc3)cc2)cc1 (configuration not stated),active: -83.5%
16,CC(=O)c1cn(CC(=O)Nc2ccc(C)cc2C)c2ccccc12,inconclusive: -55.5%
17,CCc1c(C)nc(N)nc1Cl,inconclusive: -41.2%
18,Cc1ccccc1N1C(=O)NC(=O)/C(=C\c2cc(Br)c(N3CCOCC3)o2)C1=O,inactive: 52.3%
19,Cc1occc1-c1nnc(SCC(=O)Nc2c(F)cccc2F)n1C,inconclusive: -52.2%

row,Compound,"activity change, negative = inhibition"
1,O=c1[nH]c(-c2ccccn2)nc2ccccc12,active: -106%
2,CCc1ccc2c(c1)C1(NN=C(c3cccc4ccccc34)S1)C(=O)N2 (configuration not stated),inconclusive: -57.7%
3,COc1cc(NC(=O)c2ccco2)ccc1NC(=O)C(C)C,inconclusive: -46.1%
4,COc1ccc(C=CC(O)CCN2CCC3CCC(C3)C2)cc1 (configuration not stated),active: -66.2%
5,CCCn1c(C)cc(C(=O)Cn2nnc3ccccc3c2=O)c1C,inactive: 103%
6,COc1ccc(Br)cc1C(C[N+](=O)[O-])c1c(N)n(C)c(=O)n(C)c1=O (configuration not stated),active: -100%
7,COc1ccc(S(=O)(=O)N(C)C)cc1NC(=O)C1CCN(c2ncnc3sc(C)c(C)c23)CC1,inconclusive: -42.1%
8,COc1ccccc1C(=O)NC(=O)COC(=O)c1cc[n+]([O-])cc1,inactive: -10.3%
9,CCCCC(=O)N1CCN(c2nc3ccc(Cl)cc3s2)CC1,inconclusive: -53.9%
10,CCOc1ccc2nc(Cl)c(CN(C(C)=O)C3CCCCC3)cc2c1,inconclusive: -44.8%
11,Clc1ccccc1-c1ccc2ncnc(NCc3cccs3)c2c1,inactive: -7.32%
12,CC(=O)c1cccc(NC(=O)C2Cc3c(-c4cccc(C(C)=O)c4)ccnc3O2)c1 (configuration not stated),inconclusive: -46.4%
13,C=CCNC(=S)NNC(=O)COc1c(Cl)cc(Cl)cc1Cl,inconclusive: -54.6%
14,CC1CCCN(C(=O)C2CCN(S(=O)(=O)c3ccccc3)CC2)C1 (configuration not stated),inconclusive: -50.5%
15,CCSc1ncc(/C=N/Nc2ccc(F)cc2)n1C,inactive: 107%
16,CC(=O)N1CCc2cc(S(=O)(=O)CCC(=O)Nc3cc(C)cc(C)c3)ccc21,inconclusive: -42.4%
17,Cc1ccc(CNC(=O)c2ccc(N3CCc4ccccc43)c([N+](=O)[O-])c2)cc1,inconclusive: -49.2%
18,COc1ccc(CCn2c(C)c(C(C)=O)c(C(C)=O)c2C)cc1OC,inactive: 3.92%
19,Cc1cc[n+](CC(=O)c2ccc(NC(=O)c3ccccc3)cc2)c2ccccc12,active: -97.4%

row,Compound,"activity change, negative = inhibition"
1,O=C(CCC(=O)c1ccc(F)cc1)Nc1cccc(S(=O)(=O)Nc2cccc(Cl)c2)c1,inconclusive: -42%
2,CCCCOP(=O)(c1ccc(N(C)C)cc1)C(O)c1cc(OC)ccc1OC (configuration not stated),inconclusive: -44.6%
3,CCOC(=O)C1CCN(C(=O)c2ccc(NS(=O)(=O)c3ccc(F)cc3C)cc2)CC1,inconclusive: -52.5%
4,O=C(NCc1n[nH]c(=S)n1-c1ccc(F)cc1)c1ccco1,inactive: -23.4%
5,COc1cc(O)c(C(CCN2CCCCC2)c2ccc3c(c2)OCO3)c(OC)c1 (configuration not stated),inactive: -3.86%
6,COc1cc(/C=N/Nc2nc(=O)[nH]nc2C)ccc1O,inconclusive: -43.8%
7,O=C(NCCCN1CCCCCC1)C1CCCN(S(=O)(=O)c2cccc3nsnc23)C1 (configuration not stated),inconclusive: -42.4%
8,C=CCc1ccc(OCC(O)CN2CCN(Cc3ccccc3)CC2)c(OC)c1 (configuration not stated),inconclusive: -47.3%
9,O=C(Nc1ccc2nc(SCC(=O)N3CCc4ccccc43)sc2c1)c1ccc(F)cc1,active: -62.5%
10,OC(c1ccccc1)C1(c2ccccc2)CCN(Cc2ccccc2)CC1 (configuration not stated),inconclusive: -49.8%
11,COCCNC(=O)CSc1nnc(CCCN2C(=O)c3cccc4cccc(c34)C2=O)n1-c1ccccc1,inconclusive: -46.2%
12,Cc1ccc(Cl)cc1Nc1nc(-c2sc(NC(=O)c3ccco3)nc2C)cs1,inconclusive: -54.8%
13,CCc1ccc(/C=C2\SC(=S)N(CCC(=O)Nc3cc(C)on3)C2=O)cc1,inconclusive: -58.9%
14,CCOC(=O)CNC(=O)c1cccnc1Oc1ccc(Cl)cc1,inactive: -23.9%
15,COc1ccc(CC(=O)N2N=C(C)CC2(O)C(F)(F)F)cc1OC (configuration not stated),inconclusive: -51.6%
16,O=C1CCCCCCCCCC/C(=N\O)CCCO1,inconclusive: -40.3%
17,COc1ccccc1CNC(=O)c1ccc2c(c1)nc(C)n2-c1ccccc1OC,inconclusive: -54.1%
18,COc1ccc(C(=O)N/C(=C\c2cn(C)c3ccccc23)C(=O)N2CCOCC2)cc1,inconclusive: -48.4%
19,CCCCN=c1scc(-c2ccc3c(c2)NC(=O)CO3)n1N=C1CCCC1,active: -75.6%

# Sorted by number of heavy atoms (low to high): part of the list above.
row,Compound,"activity change, negative = inhibition"
15,COc1ccc(CC(=O)N2N=C(C)CC2(O)C(F)(F)F)cc1OC (configuration not stated),inconclusive: -51.6%
19,CCCCN=c1scc(-c2ccc3c(c2)NC(=O)CO3)n1N=C1CCCC1,active: -75.6%
8,C=CCc1ccc(OCC(O)CN2CCN(Cc3ccccc3)CC2)c(OC)c1 (configuration not stated),inconclusive: -47.3%
17,COc1ccccc1CNC(=O)c1ccc2c(c1)nc(C)n2-c1ccccc1OC,inconclusive: -54.1%
18,COc1ccc(C(=O)N/C(=C\c2cn(C)c3ccccc23)C(=O)N2CCOCC2)cc1,inconclusive: -48.4%
